The values below are quoted from earlier work in publication PMC12377202, “Design, synthesis, and cytotoxic evaluation of quinazoline-based derivatives as VEGER-2 inhibitors: comparative study against EGFR kinase activity, induction of apoptosis, and molecular docking study” (RSC Advances, 2025).

The test system of this data set is WI-38. The following applies: cited from earlier work.

Molecules are shown by their SMILES. Read-outs that look alike come from different tables or passages of the source.

As to `O=C(CSc1nc2ccc([N+](=O)[O-])cc2c(=O)n1-c1ccccc1)NNC(=O)c1ccccc1` [VII], the selectivity index runs as follows: (WI-38 vs HepG2) 8.47; (WI-38 vs MCF-7) 4.73; (WI-38 vs PC3) 5.59.
For the molecule `O=C(Nc1ccc(Oc2nc(Cl)nc3ccccc23)cc1)c1cccnc1` [VIII], the selectivity index (WI-38 vs HepG2) is reported as 9.22, the selectivity index (WI-38 vs MCF-7) was 6.92 and the selectivity index (WI-38 vs PC3) is 5.53.
